To fix the notation:
B1: Fin1 (enzyme, UniProt O13839 1-722)
chain: MEKYKILECIGHGSFGRIYKVQRLKDGALLAQKEIHFGNITRQEKQYIADEVNILRNLKHPNIVQYCGEELNRSAQVINLYMEYCGHGDLANLIQRYKEEKKRFTEQEVLKFFTQLLLALYRCHYGENAPACDSQWPREIFHPKQSVLHRDIKPANIFLDENNSVKLGDFGLSKLLDNTRVFTQSYVGTPYYMSPEIIRSSPYSAKSDVWALGCVIFEICMLTHPFEGRSYLELQRNICQGNLSCWDHHYSDDVFLLIRHCLEVNSDLRPTTYQLLRSPILSDIRSKLESERVVLEQSDLLHKKHQMLIQLENDLQFREQRLSARESELENVIASRLAQREEILRRELEKQLRDMDARYQRHMQTVVNSMQKMRVTSPVDHNEQPESSTAEMFVDCTIEASQSPLLHIPKLGISKPLQTLSCPGFTLTTQQPILKRPTLRKELSSRALHTTATLMKYRANASSLRTTPIDKDGQITSLQQKNGTSNQVADCMNKLLHTSLDGKKLSPSELCNKFSDGEGLPNRKVSKLSVESDETAVSASSGESVPTDSTLTDTKSKSVFVHPPSPQSLYVEKLEKLNIRSDEVSKPSKASKTLHGYALPSLASPYDVHAEEKIARENEMDGNFKTMKINQHPDEYVLRTPKKIQLLEGQKRSPVKQLGRLGYNKLRRSAMDNAGLELRKAASTSNYTSLQSRTLPGSWRDDEEEIPRPFLRKMLDARMMRA
B2: bHLH domain of Tye7 of S. cerevisiae (domain or fragment, UniProt P33122 180-265)
chain: FQKQAHNKIEKRYRININTKIARLQQIIPWVASEQTAFEVGDSVKKQDEDGAETAATTPLPSAAATSTKLNKSMILEKAVDYILYL
B3: bHLH domain of Hms1 of S. cerevisiae (domain or fragment, UniProt Q12398 266-341)
chain: TGRVSHNIIEKKYRSNINDKIEQLRRTVPTLRVAYKKCNDLPITSRDLADLDGLEPATKLNKASILTKSIEYICHL
B4: Isa2 (protein, UniProt O43045 1-205)
chain: MLMKSRVNLLFKGPFFFRERCFQTLLNPVIAIRQLSHGSLRNSRSCRIDAKSNTLTKEIFPKINNEFKIKNRFYSSKLANDQFTLQEQCDEKGIPFILYVKDSAKKQLEKIAERKPEENSVLRVTVDGGGCHGYQVSFRMDNKIGNADTVFVRGKARVVADNISLPLISGSEIEYTNELIGSSFQLLNNPRAKTSCGCNVSFDVE
B5: Tif35 (eIF3g) (protein, UniProt P78795 1-282)
chain: MSSSKSLDWADDEDYGTGLPSIQTFDNPDGTKTMIEFRIDDNGKKVKVTRVIRKTVITERVQHAVAERKKWKKFGKEAGKNSGVDARTTSVGENVQLRLQLGWTTTKEEEQDEAALAAAKVKAKGSSVVRCRACKGNHFTAQCPYKSIIGPVDEPPLDASPVSSRASGALGEKGRYIAPHLRAGSGRESGDSMFKRERDDSATLRVTNLSDDTREEELRDLFRRFGGIQRVYLAKDKETGRAKGFAFVSYYDRDCAIKARDRLDGYGWNNLILRCEFSKPRD
B6: Rps20 (protein, UniProt O74893 1-118)
chain: MSQVAKDQKEQQIPSTVHRIRITLTSRNVRNLEKVCSDLVNRAKDKQLRVKGPVRLPTKILKITTRKTPNGEGSKTWETYEMRIHKRLIDLHSPSEIVKQITSIHIEPGVEVEVTIAQ
B7: Sum1 (eIF3i) (protein, UniProt P79083 1-328)
chain: MRPIILQGHERPLTQIKYNHDGDLLFSCAKDKVINVWFSHNGERLGTYEGHTGAIWTCDINKSSTLMVSGAADNTMRLWDVKTGKQLYKWEFPTAVKRVEFNEDDTRILAVTEERMGYAGTVTVFRVPISESDAAAETPLYVITTRESKATVAGWSYLSKFLFTGHEDGSVSRYDAITGEFVESKQVHNSGSTITDLQFYPDRTYFITSCKDTTAKAIDVDSFEVIKTYLTDTPLNTSSFTPVQDFVILGGGQEARDVTTTAARQGKFEARFYHAILEEELGRVKGHFGPINTIAVHPKGTGYASGGEDGYVRVHFFDKNYFDFKYTL
B8: Pdb1 (enzyme, UniProt Q09171 1-366)
chain: MIRLQKFGEIVGTSRSWKLLSSTIAKRYSSSSNGVKEMTVRDALNSAMEEEMKRDDRVFLIGEEVAQYNGAYKISRGLLDKFGPKRVIDTPITEMGFTGLATGAAFAGLRPICEFMTFNFSMQAIDHIVNSAARTLYMSGGIQACPIVFRGPNGPAAAVAAQHSQHFAPWYGSIPGLKVVSPYSAEDARGLLKAAIRDPNPVVVLENEILYGKTFPISKEALSEDFVLPFGLAKVERPGKDITIVGESISVVTALEAADKLKADYGVEAEVINLRSIRPLDINTIAASVKKTNRIVTVDQAYSQHGIGSEIAAQIMESDAFDYLDAPVERVSMADVPMPYSHPVEAASVPNADVVVAAAKKCLYIK

The chains behind the UniProt entries cited, without tags or fusion partners. Residues count along the entry.
UniProt Q5AL36, residues 173-244: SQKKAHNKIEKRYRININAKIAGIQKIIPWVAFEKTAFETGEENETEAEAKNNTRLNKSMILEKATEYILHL

Results are given in words; binding and its absence hold for the method and conditions named. Some entries that bind do so weakly or less than the wild type.

The target in one assay is T1, Ofd1 (S. pombe) (UniProt Q11120).
T1 sequence: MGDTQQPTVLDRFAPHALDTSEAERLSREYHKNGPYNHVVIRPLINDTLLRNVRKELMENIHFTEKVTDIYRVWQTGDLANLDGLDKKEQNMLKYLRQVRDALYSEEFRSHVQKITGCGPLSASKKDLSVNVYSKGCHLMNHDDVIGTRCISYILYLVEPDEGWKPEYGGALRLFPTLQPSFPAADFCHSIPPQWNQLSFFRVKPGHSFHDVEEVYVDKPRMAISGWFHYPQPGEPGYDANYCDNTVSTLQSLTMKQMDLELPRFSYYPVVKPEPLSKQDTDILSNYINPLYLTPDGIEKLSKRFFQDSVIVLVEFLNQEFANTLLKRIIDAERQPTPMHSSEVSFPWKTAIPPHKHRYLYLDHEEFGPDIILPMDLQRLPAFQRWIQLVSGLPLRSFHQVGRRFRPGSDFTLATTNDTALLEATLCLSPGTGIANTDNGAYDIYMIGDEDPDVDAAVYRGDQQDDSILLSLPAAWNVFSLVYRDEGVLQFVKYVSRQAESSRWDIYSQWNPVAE
The experiment in a line: two-hybrid.
Turning to “bHLH domain of Tye7 of C. albicans (from UniProt Q5AL36 173-244) (domain or fragment)”, the binding entry is reported as “binds”.

Another assay addresses T1, Ofd1 (S. pombe). As to the kind of experiment: two-hybrid. This is another data set of the same source.
Turning to B1, the binding result is “binds”.

Regarding B2, the binding result was “binds”.

On to B3, for which the binding entry is listed as “binds”.

Take B4: the binding entry is “binds”.

Take B5: the binding result was “binds”.

Regarding B6, the binding result is on record as “binds”.

B7: the binding result is given as “binds”.

For the molecule B8, the binding entry is “binds”.

Source of the values: publication doi:10.1101/363747.
